US20180215833A1 (published 2018)
These are yes or no findings as the source states them, for the method shown. For some assays here: A result given as binding can be weak or reduced; the word gives no strength.

Legend:
[1] = target: Ll11 (aa634-909) (human; Llama glama); experiment: SPR, mAb on CM-5 chip, 10 µg/ml c-Met chimera injected
[2] = target: LP6 (aa497-909) (human; Llama glama); experiment: as above
[3] = target: Ll9 (aa572-909) (human; Llama glama); experiment: as above
[4] = target: Ll10 (aa608-909) (human; Llama glama); experiment: as above
[5] = target: Ll8 (aa540-909) (human; Llama glama); experiment: as above
[6] = target: LP6 (aa497-909) (human; Llama glama); experiment: ELISA, mAb immobilised, c-Met chimera added, streptavidin-HRP
[7] = target: LS5 (aa1-448) (Llama glama; human); experiment: SPR, mAb on CM-5 chip, 10 µg/ml c-Met chimera injected
[8] = target: LS3 (aa1-287) (Llama glama; human); experiment: as above
[9] = target: LS2 (aa1-199) (Llama glama; human); experiment: as above
[10] = target: LS4 (aa1-348) (Llama glama; human); experiment: as above
[11] = target: LP6 (aa497-909) (human; Llama glama); experiment: SPR, mAb on CM-5 chip, c-Met chimera injected
[12] = target: llama/human-IPT chimeric c-Met ECD (Llama glama; human); experiment: ELISA, 200 ng immobilised c-Met protein, mAb titrated
[13] = target: llama/human-IPT chimeric c-Met ECD (Llama glama; human); experiment: ELISA on chimeric c-Met ECD

B1: 36C4 (antibody, V domains shown)
VH: QVQLVESGPGLVKPSQTLSLTCAVSGGSITTNYYYWSWIRQSPGKGLEWMGVIAYDGSTDYSPSLKSRTSISRDTSKNQFSLQLSSVTPEDTAVYYCARDVRVIATGWATANALDAWGQGTLVTVSS
VL: QSVLTQPPSVSGSPGKTVTISCAGTSSDVGYGNYVSWYQQLPGTAPKLLIFAVSYRASGIPDRFSGSKSGNTAFLTISGLQSEDEADYYCASYRSSNNAAVFGGGTHLTVL
notes: also called mAb 36C4; SIMPLE antibody 36C4
[1]
  binding: binds
[2]
  binding: binds
[3]
  binding: binds
[4]
  binding: binds
[5]
  binding: binds

B2: 48A2 (antibody, V domains shown)
VH: EVQLVQPGVELRNPGASVKVSCKASGYIFTMNSIDWVRQAPGQGLEWMGRIDPEDGGTKYAQKFQGRVTFTADTSTSTAYVELNSLRSEDTAVYYCARVDDYYLGYDYWGQGTQVTVSS
VL: DIVMTQTPTSVTASAGDKVTINCKSSQSVLFSSNQKNYLAWYQQRLGQSPRLLIYWASIRESGVPDRFSGSGSATDFTLTISNFQPEDAAVYYCQQGYSFPYSFGSGTRLEIR
[6]
  binding: no binding
[1]
  binding: binds
[7]
  binding: binds
[8]
  binding: binds
[9]
  binding: binds
[10]
  binding: binds
[11]
  binding: no binding (tested: 10 µg/ml chimera)

B3: 13E6 (antibody, V domains shown)
VH: QVQLQESGGDLVQPGGSLRLSCAASGFTFDDYVMNWVRQAPGKGLEWISAINWNGGSTYYAESMKGRFTISRDNAKNTLYLQMYSLQSDDTAVYYCVKDTVVSGNGYWGQGTQVTVSS
VL: QSVLTQPPSVSGTLGKTVTISCAGTSSDIGDYNYVSWYQQLPGTAPKLLIYDVNKRASGIPDRFSGSKSGNTASLSISGLQSEDEADYYCASYRSRNDYAFGGGTKLTVL
notes: also called mAb 13E6
[12]
  binding: binds
[13]
  binding: binds
